Assay results reported in article PMC7949057, “The cytoprotective protein MANF promotes neuronal survival independently from its role as a GRP78 cofactor” (The Journal of Biological Chemistry, 2021).
Results are given in words; binding and its absence hold for the method and conditions named. For part of these data: In cells and extracts the contact can be indirect. Some binding calls cover weakened binding; strength is not graded here. For part of these data: Sequences can lack the tags named with a protein.

The chains behind the UniProt entries cited, without tags or fusion partners. Residues count along the entry.
UniProt G3I8R9, residues 19-654: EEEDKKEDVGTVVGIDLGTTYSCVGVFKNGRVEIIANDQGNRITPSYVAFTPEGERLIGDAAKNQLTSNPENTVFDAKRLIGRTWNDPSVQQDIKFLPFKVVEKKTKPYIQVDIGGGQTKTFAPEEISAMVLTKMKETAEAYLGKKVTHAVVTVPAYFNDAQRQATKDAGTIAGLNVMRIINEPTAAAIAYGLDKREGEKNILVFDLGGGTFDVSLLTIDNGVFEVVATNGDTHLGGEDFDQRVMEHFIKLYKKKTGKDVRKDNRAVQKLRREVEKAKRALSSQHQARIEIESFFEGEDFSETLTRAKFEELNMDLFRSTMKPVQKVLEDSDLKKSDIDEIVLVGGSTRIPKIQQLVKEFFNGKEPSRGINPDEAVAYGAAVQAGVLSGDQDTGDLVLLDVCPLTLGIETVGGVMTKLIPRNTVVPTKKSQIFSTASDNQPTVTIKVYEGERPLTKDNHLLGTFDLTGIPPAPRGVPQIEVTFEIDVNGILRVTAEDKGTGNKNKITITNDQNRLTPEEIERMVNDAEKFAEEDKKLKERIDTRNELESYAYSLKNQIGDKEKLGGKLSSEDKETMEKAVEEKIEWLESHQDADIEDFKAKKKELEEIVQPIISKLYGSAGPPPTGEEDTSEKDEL

T1: MANF N-terminally tagged with a Venus fragment (pre-NV-MANF or pre-CV-MANF) (human) (UniProt P55145)
T1 sequence: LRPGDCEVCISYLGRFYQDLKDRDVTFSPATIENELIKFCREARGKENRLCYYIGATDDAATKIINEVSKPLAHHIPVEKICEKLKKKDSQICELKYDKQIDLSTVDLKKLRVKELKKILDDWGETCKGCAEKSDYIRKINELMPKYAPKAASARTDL


Experiments:
[1] = target: T1, MANF N-terminally tagged with a Venus fragment (pre-NV-MANF or pre-CV-MANF) (human); assay: split reporter; split Venus BiFC (NV, VN173 and CV, VC155) in co-transfected HEK293 cells, fixed 20 to 24 h after transfection, confocal imaging, ER shown by anti-calreticulin
[2] = target: Recombinant hamster GRP78 protein (hamster) (UniProt G3I8R9); assay: MST; as a4, in the presence of ATP (2 mM by the discussion); both purified
[3] = target: Recombinant hamster GRP78 protein (hamster) (UniProt G3I8R9); assay: MST; as a4, in the presence of AMP-PNP; both purified

| binding [1] | binding [2] | binding [3] | Binder |
| --- | --- | --- | --- |
| binds |  |  | GRP170 (HYOU1) fused with a Venus fragment (BiFC) (protein, UniProt Q9Y4L1 33-999) LAVMSVDLGSESMKVAIVKPGVPMEIVLNKESRRKTPVIVTLKENERFFGDSAASMAIKNPKATLRYFQHLLGKQADNPHVALYQARFPEHELTFDPQRQTVHFQISSQLQFSPEEVLGMVLNYSRSLAEDFAEQPIKDAVITVPVFFNQAERRAVLQAARMAGLKVLQLINDNTATALSYGVFRRKDINTTAQNIMFYDMGSGSTVCTIVTYQMVKTKEAGMQPQLQIRGVGFDRTLGGLEMELRLRERLAGLFNEQRKGQRAKDVRENPRAMAKLLREANRLKTVLSANADHMAQIEGLMDDVDFKAKVTRVEFEELCADLFERVPGPVQQALQSAEMSLDEIEQVILVGGATRVPRVQEVLLKAVGKEELGKNINADEAAAMGAVYQAAALSKAFKVKPFVVRDAVVYPILVEFTREVEEEPGIHSLKHNKRVLFSRMGPYPQRKVITFNRYSHDFNFHINYGDLGFLGPEDLRVFGSQNLTTVKLKGVGDSFKKYPDYESKGIKAHFNLDESGVLSLDRVESVFETLVEDSAEEESTLTKLGNTISSLFGGGTTPDAKENGTDTVQEEEESPAEGSKDEPGEQVELKEEAEAPVEDGSQPPPPEPKGDATPEGEKATEKENGDKSEAQKPSEKAEAGPEGVAPAPEGEKKQKPARKRRMVEEIGVELVVLDLPDLPEDKLAQSVQKLQDLTLRDLEKQEREKAANSLEAFIFETQDKLYQPEYQEVSTEEQREEISGKLSAASTWLEDEGVGATTVMLKEKLAELRKLCQGLFFRVEERKKWPERLSALDNLLNHSSMFLKGARLIPEMDQIFTEVEMTTLEKVINETWAWKNATLAEQAKLPATEKPVLLSKDIEAKMMALDREVQYLLNKAKFTKPRPRPKDKNGTRAEPPLNASASDQGEKVIPPAGQTEDAEPISEPEKVETGSEPGDTEPLELGGPGAEPEQKEQSTGQKRPLKNDEL |
|  | no binding (condition: with ATP) | no binding (condition: with AMP-PNP) | HTFPAVL [CH1-derived substrate peptide (HTFPAVL)] |
